Test results as given in publication PMC6858727.
No constants are given. Whether binding was seen depends on the method and setting. Binding seen in cells or lysates may run through a third protein. A yes stands for co-enrichment or nearness to the bait. Other partners may have been found.

Amino acid sequences for entries named in this document (tags omitted).
UniProt Q93009: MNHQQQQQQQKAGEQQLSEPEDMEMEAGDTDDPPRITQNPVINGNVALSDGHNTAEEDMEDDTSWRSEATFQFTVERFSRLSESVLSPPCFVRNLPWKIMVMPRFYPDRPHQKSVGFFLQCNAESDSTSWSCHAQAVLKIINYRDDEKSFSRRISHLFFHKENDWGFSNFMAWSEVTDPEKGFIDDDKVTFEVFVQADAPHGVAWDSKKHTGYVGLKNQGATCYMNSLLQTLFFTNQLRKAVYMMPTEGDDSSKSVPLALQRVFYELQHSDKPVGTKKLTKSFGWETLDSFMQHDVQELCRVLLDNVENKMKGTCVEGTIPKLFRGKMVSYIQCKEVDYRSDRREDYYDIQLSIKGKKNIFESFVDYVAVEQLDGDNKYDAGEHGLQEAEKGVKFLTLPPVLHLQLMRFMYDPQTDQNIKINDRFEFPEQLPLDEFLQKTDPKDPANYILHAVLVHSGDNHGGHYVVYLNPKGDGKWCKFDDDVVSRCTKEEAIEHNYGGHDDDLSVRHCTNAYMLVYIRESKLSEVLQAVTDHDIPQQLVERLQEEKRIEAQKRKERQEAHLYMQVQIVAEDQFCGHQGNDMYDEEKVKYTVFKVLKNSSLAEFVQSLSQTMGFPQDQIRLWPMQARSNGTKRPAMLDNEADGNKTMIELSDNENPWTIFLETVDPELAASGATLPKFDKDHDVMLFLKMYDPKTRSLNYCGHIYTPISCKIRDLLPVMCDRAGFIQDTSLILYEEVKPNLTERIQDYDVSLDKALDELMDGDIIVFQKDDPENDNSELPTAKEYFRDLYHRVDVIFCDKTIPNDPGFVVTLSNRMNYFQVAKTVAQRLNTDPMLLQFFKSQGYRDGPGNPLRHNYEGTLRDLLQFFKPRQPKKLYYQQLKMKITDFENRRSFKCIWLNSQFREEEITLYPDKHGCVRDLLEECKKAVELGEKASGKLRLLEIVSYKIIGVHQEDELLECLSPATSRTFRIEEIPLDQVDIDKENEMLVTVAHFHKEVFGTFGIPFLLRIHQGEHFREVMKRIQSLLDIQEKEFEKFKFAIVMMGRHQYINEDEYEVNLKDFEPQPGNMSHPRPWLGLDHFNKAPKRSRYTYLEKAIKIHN

Target: Flag-tagged PLK1 (full length) (UniProt P53350)
Experiment: affinity purification with mass spectrometry; tandem affinity purification with an anti-Flag antibody from HEK293T cells stably expressing Flag-tagged PLK1, then mass spectrometry

binding: binds
Substance: Ubiquitin specific protease 7 (USP7), endogenous in HEK293T cells (from UniProt Q93009 1-1102) (enzyme)
